PubChem BioAssay AID504793 | Drosophila RNAi Screening Center | 2011
In all, the deposit lists about 23,000 reagents; below is a random part of those that have a named target and a result. Over the whole deposit, 62 (0.27%) are marked active. 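Calls come from follow-up tests whose scores are not deposited, so confirmed genes may have low counts here; counts are not normalised per plate.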 The raw values are shown without normalisation. Reagents against one gene are numbered here. Names joined by + are all predicted targets of the reagent.

Screen: 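Whole-genome screen for parts of the DNA damage checkpoint at G2/M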 (primary screen)
System: Drosophila S2R+ cells
Reagent: long dsRNA against Drosophila genes, about 0.25 µg dsRNA per well
Timing: 4 days of dsRNA, then 4 hours of drug before read-out
Conditions: doxorubicin 0.5 µM for 4 hours to cause double-strand breaks, in cells also given a low, harmless dose of dsRNA against nbs to sensitise the assay
Detection: 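Per-well count of mitotic cells stained for phospho-histone H3 after doxorubicin exposure, used as mitotic index; counts are raw and not normalised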
Direction: mitotic cells: higher = more cells in mitosis, weaker G2 arrest
Rule for the call: 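a call needs confirmation in secondary tests, with other dsRNAs and a check of mitotic timing without damage, not just a high primary count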
Meaning of the calls: active = confirmed in follow-up tests; inactive = not confirmed

mitotic cells, replicate 1	mitotic cells, replicate 2	Call	predicted target	dsRNA no.
6		inactive	phr	1
5		inactive	beat-VII	1
13		inactive	beat-VII	2
8		inactive	beat-VII	3
7		inactive	RpL15	1
10		inactive	CG10910	1
3		inactive	CG10910	2
11		inactive	CG4770	1
8		inactive	COX4	1
7		inactive	COX4	2
3		inactive	Moe	1
7		inactive	Moe	2
4		inactive	Cys	1
7		inactive	Cys	2
3		inactive	AGBE	1
10		inactive	AGBE	2
15		inactive	CG11164	1
2		inactive	CG14566	1
2		inactive	CG14566	2
5		inactive	beta'COP	1
6		inactive	beta'COP	2
12		inactive	Chd3	1
5		inactive	Chd3	2
8		inactive	sim	1
4		inactive	sim	2
4	11	inactive	sel	1
5		inactive	c(2)M	1
4		inactive	CG10859	1
2		inactive	Marf	1
7		inactive	Marf	2
6		inactive	CG11756	1
2		inactive	CG11756	2
2		inactive	Vha44	1
8		inactive	Vha44	2
7		inactive	Vha44	3
6		inactive	CG6843	1
8		inactive	CG6843	2
6		inactive	CG14113	1
1		inactive	Cpr73D	1
6		inactive	Cpr73D	2
8		inactive	CG10877	1
10		inactive	CG32829	1
7		inactive	CG32829	2
9		inactive	Osi20	1
5		inactive	Osi20	2
14		inactive	CG31195	1
6		inactive	CG6749	1
5		inactive	cyp33 + CG34194	1
14		inactive	CG34041	1
11		inactive	CG34041	2
7		inactive	Zip71B	1
7		inactive	Zip71B	2
8		inactive	ClpP	1
6		inactive	Uqcc1 + CG9948	1
7		inactive	CG18744	1
8		inactive	CG32579	1
7		inactive	CG4891	1
6		inactive	CG4891	2
4		inactive	CG17242	1
31		inactive	ppk20	1
8		inactive	ppk20	2
11		inactive	CG4866	1
11		inactive	CG31673	1
5		inactive	Nmt	1
6		inactive	RpS9	1
6		inactive	Nepl17	1
7		inactive	CG6569	1
7		inactive	xmas-1 (retired record)	1
9		inactive	xmas-1 (retired record)	2
4		inactive	GatC + PolG2	1
6		inactive	Zip42C.2	1
3		inactive	Zip42C.2	2
13		inactive	CG31288	1
5		inactive	CG31288	2
2		inactive	CG9328	1
6		inactive	CG32117	1
12		inactive	PolE4	1
10		inactive	CG33255 (retired record) + hpRNA:CR32205	1
8		inactive	CG33255 (retired record) + hpRNA:CR32205	2
9		inactive	Amyrel	1
7		inactive	CG3223	1
2		inactive	CG3223	2
7		inactive	Mcm3	1
10		inactive	Mcm3	2
12		inactive	lncRNA:roX1	1
7		inactive	CG4497	1
4		inactive	Or56a	1
2		inactive	CG13075	1
9		inactive	CG13075	2
8		inactive	5PtaseI	1
10		inactive	5PtaseI	2
10		inactive	5PtaseI	3
34		inactive	svp	1
5		inactive	svp	2
7		inactive	svp	3
1		inactive	Eig71Ef	1
9		inactive	Gem4b + Gem4c	1
8		inactive	CG42486 + CG14933	1
29		inactive	CG32160 (retired record)	1
6		inactive	E(spl)mbeta-HLH	1
8		inactive	eIF2Bgamma	1
6		inactive	eIF2Bgamma	2
7		inactive	CG30121 (retired record)	1
4		inactive	CG30121 (retired record)	2
8		inactive	sdk	1
5		inactive	CanB2	1
3		inactive	CanB2	2
5		inactive	CG9471	1
8		inactive	CG9471	2
3		inactive	Ccp84Ab	1
8		inactive	Ccp84Ab	2

Reprinted from the entries so far (8 entries):
mitotic cells, replicate 1	mitotic cells, replicate 2	Call	predicted target	dsRNA no.
11		inactive	CG4866	1
11		inactive	CG31673	1
5		inactive	Nmt	1
6		inactive	RpS9	1
6		inactive	Nepl17	1
7		inactive	CG6569	1
7		inactive	xmas-1 (retired record)	1
9		inactive	xmas-1 (retired record)	2
